Experimental data published in paper PMC7771113 (International Journal for Parasitology: Drugs and Drug …, 2020).
Where two headings read alike, the source gives them in different places.

Legend:
T. gondii = details: read-out: IC50 against T. gondii; ref Strobl et al., 2007; cited from earlier work
[1] = test system: T. gondii EGS strain (atypical, I/III); test: Antiproliferative assay, tachyzoites of EGS strain; format: cell-based; details: Toxoplasma gondii, 48 h
NDHF fibroblasts = test: Cytotoxicity assay in host cells; format: cell-based, Human; details: CC50 in NDHF after 120 h
[2] = test system: T. gondii RH strain (type I) tachyzoites; test: Antiproliferative assay, tachyzoites of RH strain in LLC-MK2 cells; format: cell-based; details: Toxoplasma gondii

O=C(CCCCCCC(=O)Nc1ccccc1)NO [SAHA, Suberoylanilide Hydroxamic Acid]
IC50 (T. gondii): 83 nM
IC50 [1]: 44 ± 11 nM
IC50 ([1]; read-out: T. gondii EGS IC50): 40 nM
CC50 times higher than the IC50 obtained for T. gondii (NDHF fibroblasts): 97 times
IC90 ([2]; LLC-MK2): 200 nM
IC50 ([2]; LLC-MK2, 24 h): 41 ± 3 nM
IC50 ([2]; LLC-MK2, 48 h): 67 ± 36 nM
IC50 ([2]; LLC-MK2, 48 h, read-out: T. gondii RH IC50): 70 nM
